Reference: PMC7565148
No constants are given. Whether binding was seen depends on the method and setting. Binding seen in cells or lysates may run through a third protein. Tags and fused reporters may be left off the sequences shown.

Molecular target: T1, glutathione S-transferase (GST)–WARS1 fusion protein (not stated (human or mouse cDNA cloned)) (UniProt P32921)
T1 sequence: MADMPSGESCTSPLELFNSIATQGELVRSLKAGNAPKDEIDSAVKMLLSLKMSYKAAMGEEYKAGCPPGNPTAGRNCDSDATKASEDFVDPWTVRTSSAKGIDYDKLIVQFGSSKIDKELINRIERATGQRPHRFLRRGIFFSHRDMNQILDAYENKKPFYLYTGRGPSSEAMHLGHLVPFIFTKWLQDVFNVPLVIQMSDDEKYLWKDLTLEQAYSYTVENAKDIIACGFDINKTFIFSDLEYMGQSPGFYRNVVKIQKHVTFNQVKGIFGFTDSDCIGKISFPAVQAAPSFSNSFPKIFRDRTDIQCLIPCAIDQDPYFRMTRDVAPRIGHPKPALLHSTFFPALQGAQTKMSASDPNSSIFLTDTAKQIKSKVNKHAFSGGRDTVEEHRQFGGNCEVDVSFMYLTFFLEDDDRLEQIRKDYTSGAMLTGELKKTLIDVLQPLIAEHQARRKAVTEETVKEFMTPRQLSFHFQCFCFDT
Assay: pull-down; J774.1 total cell lysates incubated with GST or GST-WARS1 for 2 h at 4 °C in cell lysis buffer; washed four times with lysis buffer; bound protein detected by immunoblot with an anti-TREM-1 antibody; only the target purified

binding: no binding
B1: triggering receptor expressed on myeloid cells (TREM)-1 (receptor, UniProt Q9JKE2 21-230)
chain: AIVLEEERYDLVEGQTLTVKCPFNIMKYANSQKAWQRLPDGKEPLTLVVTQRPFTRPSEVHMGKFTLKHDPSEAMLQVQMTDLQVTDSGLYRCVIYHPPNDPVVLFHPVRLVVTKGSSDVFTPVIIPITRLTERPILITTKYSPSDTTTTRSLPKPTAVVSSPGLGVTIINGTDADSVSTSSVTISVICGLLSKSLVFIILFIVTKRTFG
